From US20220041740A1 (LIFEARC, published 2022)
Results are given in words; binding and its absence hold for the method and conditions named. Some binding calls cover weakened binding; strength is not graded here.

Experiments:
[1] = biological target: T1, IL-17BR (as injected in the Biacore competition assay) (Homo sapiens (Human)) (UniProt Q9NRM6); assay: Biacore competition assay (figure legend)
T1 sequence: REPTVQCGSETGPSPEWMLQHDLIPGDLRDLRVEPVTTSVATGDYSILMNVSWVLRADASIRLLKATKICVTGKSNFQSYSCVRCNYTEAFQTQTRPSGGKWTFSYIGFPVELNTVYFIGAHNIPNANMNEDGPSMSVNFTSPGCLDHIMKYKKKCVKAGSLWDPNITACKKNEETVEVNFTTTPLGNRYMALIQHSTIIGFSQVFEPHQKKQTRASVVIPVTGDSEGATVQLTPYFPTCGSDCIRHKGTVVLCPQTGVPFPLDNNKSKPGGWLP

[2] = biological target: T1, IL-17BR (as injected in the Biacore competition assay) (Homo sapiens (Human)); assay: Biacore 2000 competition assay; IL-25 injected over IL-17BR that is held by hD9030 captured on a Protein A chip
[3] = biological target: T1, IL-17BR (as injected in the Biacore competition assay) (Homo sapiens (Human)); assay: Biacore, IL-25 injected over IL-17BR held by captured hD9030

Measured: binding

B1: IL-25 (ligand)
chain: YSHWPSCCPSKGQDTSEELLRWSTVPVPPLEPARPNRHPESCRASEDGPLNSRAISPWRYELDRDLNRLPQDLYHARCLCPHCVSLQTGSHMDPRGNSELLYHNQTVFYRRPCHGEKGTHKGYCLERRLYRVSLACVCVRPRVMG
binds: all assays above
